# Reference: patent US20070213272A1, “Transmucosal Administration Agent Containing Pth” (priority 2004, published 2007)
# Part of at least one peptide drawing is inferred or uncertain, most often the ends.
# What was measured:
# aged OVX rats [1] = assay: Blood osteocalcin (OC) bone formation marker, aged OVX rats (Example 2); type: in vivo, rat; details: 5 times a week for 6 weeks
# [2] = test system: patients with primary osteoporosis; assay: Blood PINP bone formation marker (RIA) in transnasal clinical study; type: in vivo, human
# aged OVX rats [3] = assay: Lumbar bone density, iv versus sc administration in aged OVX rats (Example 4); type: in vivo, rat; details: 5 times a week for 6 weeks
# aged OVX rats [4] = assay: Urine deoxypyridinoline (DPD) bone resorption marker, aged OVX rats (Example 2); type: in vivo, rat; details: 5 times a week for 6 weeks
# aged OVX rats [5] = assay: Lumbar bone density after caudal vein administration in aged OVX rats (Example 2); type: in vivo, rat; details: iv 10, 2.5, 0.625 nmol/kg, 5 times a week for 6 weeks
# aged OVX rats [6] = assay: Blood TRACP 5b bone resorption marker, aged OVX rats (Example 4); type: in vivo, rat; details: iv 2.5 nmol/kg, 5 times a week for 6 weeks
# aged OVX rats [7] = assay: Bone morphometry of the third lumbar vertebra, iv versus sc, aged OVX rats (Example 4); type: in vivo, rat; details: 5 times a week for 6 weeks
# aged OVX rats [8] = assay: Blood osteocalcin (OC) bone formation marker, iv versus sc, aged OVX rats (Example 4); type: in vivo, rat; details: 5 times a week for 6 weeks
# [9] = test system: patients with primary osteoporosis; assay: Urine NTx bone resorption marker (ELISA) in transnasal clinical study; type: in vivo, human
# aged OVX rats [10] = assay: Urine DPD bone resorption marker, iv versus sc, aged OVX rats (Example 4); type: in vivo, rat; details: 5 times a week for 6 weeks
# [11] = test system: patients with primary osteoporosis; assay: Lumbar vertebral bone mineral density (L2-4BMD, DXA) in 12-week transnasal clinical study; type: in vivo, human; details: 12 weeks, L2-4BMD by DXA
# [12] = 250 μg daily transnasal, 6-week administration
# [13] = 250 μg daily transnasal, 12-week administration
# [14] = 500 μg daily transnasal, 6-week administration
# [15] = 500 μg daily transnasal, 12-week administration
# [16] = 1,000 μg daily transnasal, 6-week administration
# [17] = 1,000 μg daily transnasal, 12-week administration
smiles,measurement,setting,value
CC[C@H](C)[C@H](NC(=O)[C@H](CCC(=O)O)NC(=O)[C@H](CO)NC(=O)[C@@H](NC(=O)[C@@H](N)CO)C(C)C)C(=O)N[C@@H](CCC(N)=O)C(=O)N[C@@H](CC(C)C)C(=O)N[C@@H](CCSC)C(=O)N[C@@H](Cc1c[nH]cn1)C(=O)N[C@@H](CC(N)=O)C(=O)N[C@@H](CC(C)C)C(=O)NCC(=O)N[C@@H](CCCCN)C(=O)N[C@@H](Cc1c[nH]cn1)C(=O)N[C@@H](CC(C)C)C(=O)N[C@@H](CC(N)=O)C(=O)N[C@@H](CO)C(=O)N[C@@H](CCSC)C(=O)N[C@@H](CCC(=O)O)C(=O)N[C@@H](CCCNC(=N)N)C(=O)N[C@H](C(=O)N[C@@H](CCC(=O)O)C(=O)N[C@@H](Cc1c[nH]c2ccccc12)C(=O)N[C@@H](CC(C)C)C(=O)N[C@@H](CCCNC(=N)N)C(=O)N[C@@H](CCCCN)C(=O)N[C@@H](CCCCN)C(=O)N[C@@H](CC(C)C)C(=O)N[C@@H](CCC(N)=O)C(=O)N[C@@H](CC(=O)O)C(=O)N[C@H](C(=O)N[C@@H](Cc1c[nH]cn1)C(=O)N[C@@H](CC(N)=O)C(=O)N[C@@H](Cc1ccccc1)C(=O)O)C(C)C)C(C)C [hPTH(1-34)],blood osteocalcin (OC) versus OVX group,aged OVX rats [1]; iv 2.5 nmol/kg,significant increases
same,blood osteocalcin (OC) versus OVX group,aged OVX rats [1]; iv 10 nmol/kg,significant increases
same,change rate (median) of blood PINP,[2]; [12],4.1%
same,change rate (median) of blood PINP,[2]; [13],1.4%
same,change rate (median) of blood PINP,[2]; [14],16.5%
same,change rate (median) of blood PINP,[2]; [15],−0.84%
same,change rate (median) of blood PINP,[2]; [16],24.3%
same,change rate (median) of blood PINP,[2]; [17],14.8%
same,lumbar bone density versus OVX group,"aged OVX rats [3]; iv 10, 2.5, 0.625 nmol/kg",significant and dose-dependent increases
same,lumbar bone density versus OVX group,aged OVX rats [3]; sc 0.625 nmol/kg,significant increase
same,urine DPD (corrected by urine creatinine),aged OVX rats [4]; iv 0.625 nmol/kg,significant decrease
same,urine DPD (corrected by urine creatinine),aged OVX rats [4]; iv 2.5 nmol/kg,no significant decreases
same,urine DPD (corrected by urine creatinine),aged OVX rats [4]; iv 10 nmol/kg,no significant decreases
same,lumbar bone density versus OVX group,aged OVX rats [5],"significant, dose-dependent increase"
same,blood TRACP 5b versus OVX group,aged OVX rats [6],significant decrease
same,bone formation parameter BFR/BS versus OVX group,aged OVX rats [7]; iv 2.5 nmol/kg,Significant increases
same,bone formation parameter LS/BS versus OVX group,aged OVX rats [7]; iv 2.5 nmol/kg,Significant increases
same,bone mass parameter Tb.Th,aged OVX rats [7]; iv 2.5 nmol/kg,significant increases
same,bone resorption parameter ES/BS versus OVX group,aged OVX rats [7]; iv 2.5 nmol/kg,significant reductions
same,bone resorption parameter N.Oc/BS versus OVX group,aged OVX rats [7]; iv 2.5 nmol/kg,significant decrease
same,bone formation parameter BFR/BS versus OVX group,aged OVX rats [7]; iv 10 nmol/kg,Significant increases
same,bone formation parameter LS/BS versus OVX group,aged OVX rats [7]; iv 10 nmol/kg,Significant increases
same,bone mass parameter Tb.Th,aged OVX rats [7]; iv 10 nmol/kg,significant increases
same,bone resorption parameter ES/BS versus OVX group,aged OVX rats [7]; iv 10 nmol/kg,significant reductions
same,bone mass parameter BV/TV,"aged OVX rats [7]; iv 10, 2.5, 0.625 nmol/kg",significant and dose-dependent increase
same,bone formation parameter BFR/BS versus OVX group,aged OVX rats [7]; sc 0.625 nmol/kg,Significant increases
same,bone formation parameter LS/BS versus OVX group,aged OVX rats [7]; sc 0.625 nmol/kg,Significant increases
same,bone mass parameter BV/TV,aged OVX rats [7]; sc 0.625 nmol/kg,no significant increase
same,bone mass parameter Tb.Th,aged OVX rats [7]; sc 0.625 nmol/kg,no significant increase
same,bone resorption parameter ES/BS versus OVX group,aged OVX rats [7]; sc 0.625 nmol/kg,no significant decrease
same,blood osteocalcin (OC) versus OVX group,aged OVX rats [8]; iv 2.5 nmol/kg,significant increases
same,blood osteocalcin (OC) versus OVX group,aged OVX rats [8]; iv 10 nmol/kg,significant increases
same,blood osteocalcin (OC) versus OVX group,aged OVX rats [8]; sc 0.625 nmol/kg,significant increases
same,change rate (median) of urine NTx,[9]; [12],−3.0%
same,change rate (median) of urine NTx,[9]; [13],−8.7%
same,change rate (median) of urine NTx,[9]; [14],−22.2%
same,change rate (median) of urine NTx,[9]; [15],−28.6%
same,change rate (median) of urine NTx,[9]; [16],−26.1%
same,change rate (median) of urine NTx,[9]; [17],−16.4%
same,urine DPD (corrected by urine creatinine),aged OVX rats [10]; iv 0.625 nmol/kg,decrease trend
same,urine DPD (corrected by urine creatinine),aged OVX rats [10]; sc 0.625 nmol/kg,increase trend
same,change rate (average) of BMD after 12-week administration,[11]; 250 μg daily transnasal,0.14%
same,change rate (average) of BMD after 12-week administration,[11]; 500 μg daily transnasal,0.69%
same,change rate (average) of BMD after 12-week administration,"[11]; 1,000 μg daily transnasal",2.44%
